In patent US12178892B2 (Endocyte, Inc., priority 2013, dated 2024):

Columns and labels:
[1] = general procedure: Fmoc solid-phase peptide synthesis; Fmoc-L-Lys(Mtt)-Wang resin; Fmoc-Lys(Boc)-Wang resin; Trt-EDA resin; HBTU, HOBt, DIPEA; conditions: for isolated yield: whole synthesis
[2] = general procedure: Fmoc solid-phase peptide synthesis; Wang resin; HBTU, HOBt, DIPEA; conditions: whole synthesis

For “Glu-Lys-Aoc-Phe-Phe-Arg-Asp-Arg-Lys-NOTA”, the isolated yield [1] was 37% yield.

Pte-γGlu-Arg-Arg-Lys-NOTA gave an isolated mass ([2]; scale 0.12 mmol) of 28 mg and an isolated yield ([2]; scale 0.12 mmol) of 20%.

With Glu-Lys-AMPAA-Asp-Asp-Lys-Bn-NOTA the isolated yield [1] was 47% yield.

With DUPA-EAOA-Phe-Arg-Lys-NH2-NOTA the conjugation yield ([1]; conjugation step, on QC08001) was 50%.

Pte-γGlu-Asp-Arg-Arg-Lys-Bn-NOTA showed an isolated yield [1] of 18% yield.

In the case of Pte-γGlu-Arg-Arg-Lys-Bn-NOTA, the isolated mass ([2]; scale 0.07 mmol) is reported as 35 mg and the isolated yield ([2]; scale 0.07 mmol) is reported as 35%.

With DUPA-EAOA-Phe-Phe-NOTA the “final HPLC purity” value ([1]; conjugation step, 210 nm) was 97% and the conjugation yield ([1]; conjugation step, based on 8.02 mg in theory) was 56%.
